Measured values published in article PMC3257293.
No constants are given. Whether binding was seen depends on the method and setting. For part of these data: Binding seen in cells or lysates may run through a third protein. Some entries that bind do so weakly or less than the wild type. Where a sequence is shown, tags or fusion partners need not be part of it.

B1: Bub2, fused to the DNA activation domain in pJG4-5 (protein, UniProt P26448 1-306)
chain: MTSIEDLISNPPLLLHSSLSQLRYLILSEGLPISEDKQQQRTRCYVWTVLSQTSMEASTQRYLALLKLGPPSTTIYQKIKNDTSRTFQTDPNFRNRVSEDALIRCLSCFAWQTQQRRQKTRFGRIPVSTYVQGMNVLLAPLLYSCPSEPMAYQLFTKLCYEMIPTYLTKNLNGAQNGAKLLDISLRIIDPKLSKFLSDNLLTAEIYGMPSILTLSSCNKPLDQVIKLWDFMFAYGFHMNILFVVAFLVKMRSKVFKSDSPVNLLRQFPDFDADEIIRLGVGFIAKIPAQIYDLLVDHLTDPDIYIP
B2: TAP-tagged Bfa1 (BFA1-TAP) (protein, UniProt P47113 1-574)
chain: MSIRPLTLNGLDEPETSFEELNTTLPRFQSHETLTLEENVPPLSTSTYIPPPSSVGTSDTGTVFSNSTSAFWSNKQADDDQDMEVDQDDEFLNDFQEFQNKKDDFDDAIKTNFHLRNGCRTGPFKNDIFAEEFDRKLSLEDKPRLKQPRSMMELKPKRKLSNSVTSRNLRSGNSVRFKKSMPNLALVNPAIREEEEDEEREREDQREFNYKIDNDTQDTILAKFSSDDEGDFLTGFEELEGEAIDETISSNDKESADHPRFLKKSSSSLPLKISPAQYDIVKHDELLTPGLHRRQRDWNTQQELDSFKEKRSVRHCSNQNVQLNGPAKIKTIKQQIDHNTPMKKGSMIYNPKTMKWEGNENVLSKFSDVDTANRKALLIKNKLQRDADSKKQKYSDLQHARATSRNQKVIGNMILDEQNLRWVSVSEEEADPFAGIPEINLPPVGKSMKKRSSSPFLRSKSQVNTPFVSNDNDGVYQSTAAQARLRKYHSMRTLNGTTETPEISSTFHLSSRALEKFYHEENRWCKKLASWFIPRDETIISVDEETIMDESTVNSKRKSYMYEIRNMVINSTKD
B3: TAP-tagged Bfa1^4A (BFA1^4A-TAP) (protein, UniProt P47113 1-574)
chain: MSIRPLTLNGLDEPETSFEELNTTLPRFQSHETLTLEENVPPLSTSTYIPPPSSVGTSDTGTVFSNSTSAFWSNKQADDDQDMEVDQDDEFLNDFQEFQNKKDDFDDAIKTNFHLRNGCRTGPFKNDIFAEEFDRKLSLEDKPRLKQPRSMMELKPKRKLSNSVTSRNLRSGNSVRFKKSMPNLALVNPAIREEEEDEEREREDQREFNYKIDNDTQDTILAKFSSDDEGDFLTGFEELEGEAIDETISSNDKESADHPRFLKKSSSSLPLKISPAQYDIVKHDELLTPGLHRRQRDWNTQQELDSFKEKRSVRHCSNQNVQLNGPAKIKTIKQQIDHNTPMKKGSMIYNPKTMKWEGNENVLSKFSDVDTANRKALLIKNKLQRDADSKKQKYSDLQHARATSRNQKVIGNMILDEQNLRWVSVSEEEADPFAGIPEINLPPVGKSMKKRAAAPFLRSKSQVNTPFVSNDNDGVYQSTAAQARLRKYHSMRTLNGTTETPEISSTFHLSSRALEKFYHEENRWCKKLASWFIPRDETIISVDEETIMDESTVNSKRKAYMYEIRNMVINSTKD
B4: Tem1, fused to the DNA activation domain in pJG4-5 (enzyme, UniProt P38987 1-245)
chain: MATPSTGANNSIPAVRNQVEVQVGLVGDAQVGKTSLMVKYVQNIYDKEYTQTLGVNFLKRKVSIRSTDIIFSIMDLGGQREFINMLPIATVGSSVIIFLFDLTRPETLSSIKEWYRQAYGLNDSAIPILVGTKYDLLIDLDPEYQEQISRTSMKYAQVMNAPLIFCSTAKSINIQKIFKIALAKIFNLTLTIPEINEIGDPLLIYKHLGGQQHRHHNKSQDRKSHNIRKPSSSPSSKAPSPGVNT

Experiments:
[1] = target: T1, Bfa1^4A (SSS452AAA S559A), fused to the DNA binding domain in pGilda (S. cerevisiae) (UniProt P47113); test: two-hybrid; Cdc5, Tem1 and Bub2 fused to the activation domain in pJG4-5; Bfa1 and each Bfa1 mutant fused to the DNA binding domain in pGilda; yeast strain EGY48 with the reporter plasmid pSH18-34; measured quantitatively
T1 sequence: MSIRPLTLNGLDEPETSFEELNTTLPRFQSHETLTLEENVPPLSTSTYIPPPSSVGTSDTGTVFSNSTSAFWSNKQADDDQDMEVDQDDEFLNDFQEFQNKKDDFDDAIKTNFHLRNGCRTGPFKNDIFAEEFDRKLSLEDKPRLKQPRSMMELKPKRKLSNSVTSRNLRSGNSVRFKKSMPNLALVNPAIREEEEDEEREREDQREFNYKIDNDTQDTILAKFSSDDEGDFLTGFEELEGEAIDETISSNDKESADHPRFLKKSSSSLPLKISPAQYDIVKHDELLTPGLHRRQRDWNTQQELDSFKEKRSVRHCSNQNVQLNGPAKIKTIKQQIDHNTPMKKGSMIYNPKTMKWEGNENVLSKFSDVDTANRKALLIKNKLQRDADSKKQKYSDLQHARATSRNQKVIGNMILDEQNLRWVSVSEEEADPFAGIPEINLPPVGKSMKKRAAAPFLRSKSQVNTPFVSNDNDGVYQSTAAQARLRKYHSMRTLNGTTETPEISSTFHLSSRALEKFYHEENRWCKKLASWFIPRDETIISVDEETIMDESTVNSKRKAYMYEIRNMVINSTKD

[2] = target: T2, Bfa1 (wild type), fused to the DNA binding domain in pGilda (S. cerevisiae) (UniProt P47113); test: as above
T2 sequence: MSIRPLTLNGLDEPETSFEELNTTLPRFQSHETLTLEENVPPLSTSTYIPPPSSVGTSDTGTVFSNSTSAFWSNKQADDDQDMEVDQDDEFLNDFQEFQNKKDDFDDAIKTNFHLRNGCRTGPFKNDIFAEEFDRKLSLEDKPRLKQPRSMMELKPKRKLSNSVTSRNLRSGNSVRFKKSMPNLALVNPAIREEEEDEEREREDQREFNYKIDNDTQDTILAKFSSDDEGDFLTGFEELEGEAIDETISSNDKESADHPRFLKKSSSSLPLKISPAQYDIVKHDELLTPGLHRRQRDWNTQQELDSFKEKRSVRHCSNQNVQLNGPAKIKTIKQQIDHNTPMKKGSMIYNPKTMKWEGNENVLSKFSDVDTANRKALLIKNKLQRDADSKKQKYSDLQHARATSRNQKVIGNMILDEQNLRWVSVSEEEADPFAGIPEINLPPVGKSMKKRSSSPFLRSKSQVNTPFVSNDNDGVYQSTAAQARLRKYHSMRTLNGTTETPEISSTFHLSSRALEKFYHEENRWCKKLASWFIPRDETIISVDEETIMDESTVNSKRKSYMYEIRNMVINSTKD

[3] = target: T3, 3XHA-tagged Kin4 (KIN4-3HA) (S. cerevisiae) (UniProt Q01919); test: co-IP; Crude extracts of yeast grown at 25°C to mid-log phase; Kin4-3HA purified with anti-HA followed by protein A-agarose; co-precipitates blotted with PAP for Bfa1-TAP or Bfa1^4A-TAP
T3 sequence: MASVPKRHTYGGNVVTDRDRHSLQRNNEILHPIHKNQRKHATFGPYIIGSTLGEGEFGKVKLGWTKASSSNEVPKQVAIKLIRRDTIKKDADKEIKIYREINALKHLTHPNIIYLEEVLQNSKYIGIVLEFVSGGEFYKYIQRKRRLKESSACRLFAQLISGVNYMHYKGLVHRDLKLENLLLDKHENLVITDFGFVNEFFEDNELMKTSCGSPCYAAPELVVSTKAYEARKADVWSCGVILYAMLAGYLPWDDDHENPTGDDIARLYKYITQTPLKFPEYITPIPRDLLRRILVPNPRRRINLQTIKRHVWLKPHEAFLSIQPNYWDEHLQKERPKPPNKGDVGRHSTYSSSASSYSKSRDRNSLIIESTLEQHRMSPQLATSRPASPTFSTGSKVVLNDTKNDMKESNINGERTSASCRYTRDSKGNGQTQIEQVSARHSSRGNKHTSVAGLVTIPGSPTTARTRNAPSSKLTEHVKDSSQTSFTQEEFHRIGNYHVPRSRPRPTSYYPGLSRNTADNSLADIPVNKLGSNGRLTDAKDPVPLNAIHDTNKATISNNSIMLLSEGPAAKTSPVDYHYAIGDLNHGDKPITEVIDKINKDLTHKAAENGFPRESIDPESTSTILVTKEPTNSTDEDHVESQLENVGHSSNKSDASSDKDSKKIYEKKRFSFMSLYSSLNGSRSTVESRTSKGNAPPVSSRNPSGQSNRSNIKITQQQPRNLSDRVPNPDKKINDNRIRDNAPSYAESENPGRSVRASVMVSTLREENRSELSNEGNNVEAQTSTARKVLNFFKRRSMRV

Binder	binding [1]	binding [2]	binding [3]
B1	binds	binds	
B2			binds
B3			binds
B4	binds	binds	
